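A panel of P. falciparum strains inside erythrocytes is exposed to compounds for three days, then a DNA-binding dye reports the amount of parasite DNA. Each compound was titrated across a series from about 0.000037 to 29 µM. The number is the fitted AC50, the concentration giving a half-maximal change in signal; a lower value means higher potency, whether the curve shows a decrease or an increase. Calls follow the curve class and fit quality: every row here is inconclusive, covering signal-raising curves and weak, poorly fitted, partial or highest-dose-only inhibition curves.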

Values are in nM. Every entry below has the call inconclusive. These entries are mostly ones the record files as inconclusive; other results of the assay are not listed here. Potencies fitted to partial, single-point or poorly fitting curves are rough.

| # | compound | tested on / at | fitted potency (nM) | curve |
|---|---|---|---|---|
| 1 | `O=C1CSC2(CCN(CCCN3c4ccccc4Sc4ccc(Cl)cc43)CC2)N1` | P94_40 | 8912 | inhibitor, partial curve |
| 2 | `O=C1CSC2(CCN(CCCN3c4ccccc4Sc4ccc(Cl)cc43)CC2)N1` | TAB165 | 10000 | inhibitor, single point |
| 3 | `O=C1CSC2(CCN(CCCN3c4ccccc4Sc4ccc(Cl)cc43)CC2)N1` | ATS189 | 17782 | inhibitor, single point |
| 4 | `O=C1CSC2(CCN(CCCN3c4ccccc4Sc4ccc(Cl)cc43)CC2)N1` | ECU | 12589 | inhibitor, single point |
| 5 | `O=C1CSC2(CCN(CCCN3c4ccccc4Sc4ccc(Cl)cc43)CC2)N1` | CP260 | 15848 | inhibitor, single point |
| 6 | `O=C1CSC2(CCN(CCCN3c4ccccc4Sc4ccc(Cl)cc43)CC2)N1` | TAB109 | 12589 | inhibitor, single point |
| 7 | `O=C1CSC2(CCN(CCCN3c4ccccc4Sc4ccc(Cl)cc43)CC2)N1` | DFO2036 | 17782 | inhibitor, single point |
| 8 | `O=C1CSC2(CCN(CCCN3c4ccccc4Sc4ccc(Cl)cc43)CC2)N1` | CP265 | 17782 | inhibitor, single point |
| 9 | `O=C1CSC2(CCN(CCCN3c4ccccc4Sc4ccc(Cl)cc43)CC2)N1` | CP247 | 10000 | inhibitor, single point |
| 10 | `O=C1CSC2(CCN(CCCN3c4ccccc4Sc4ccc(Cl)cc43)CC2)N1` | CP305 | 13459 | inhibitor, single point |
| 11 | `O=C1CSC2(CCN(CCCN3c4ccccc4Sc4ccc(Cl)cc43)CC2)N1` | CP194 | 16944 | inhibitor, single point |
| 12 | `O=C1CSC2(CCN(CCCN3c4ccccc4Sc4ccc(Cl)cc43)CC2)N1` | CP192 | 15101 | inhibitor, single point |
| 13 | `O=C1CSC2(CCN(CCCN3c4ccccc4Sc4ccc(Cl)cc43)CC2)N1` | 3D7 | 12589 | inhibitor, single point |
| 14 | `O=C1CSC2(CCN(CCCN3c4ccccc4Sc4ccc(Cl)cc43)CC2)N1` | Dd2 | 11220 | inhibitor, single point |
| 15 | `O=C1CSC2(CCN(CCCN3c4ccccc4Sc4ccc(Cl)cc43)CC2)N1` | CP329 | 19011 | inhibitor, single point |
| 16 | `O=C1CSC2(CCN(CCCN3c4ccccc4Sc4ccc(Cl)cc43)CC2)N1` | CP297 | 15101 | inhibitor, single point |
| 17 | `O=C1CSC2(CCN(CCCN3c4ccccc4Sc4ccc(Cl)cc43)CC2)N1` | CP201 | 16944 | inhibitor, single point |
| 18 | `O=C1CC2OCC=C3CN4CC[C@]56c7ccccc7N1C5C2[C@H]3C[C@H]46` (some centres undefined) | SC27B | 8912 | inhibitor, single point |
| 19 | `O=C1CC2OCC=C3CN4CC[C@]56c7ccccc7N1C5C2[C@H]3C[C@H]46` (some centres undefined) | TAB165 | 11220 | inhibitor, single point |
| 20 | `O=C1CC2OCC=C3CN4CC[C@]56c7ccccc7N1C5C2[C@H]3C[C@H]46` (some centres undefined) | CP265 | 10000 | inhibitor, single point |
| 21 | `O=C1CC2OCC=C3CN4CC[C@]56c7ccccc7N1C5C2[C@H]3C[C@H]46` (some centres undefined) | CP262 | 15101 | inhibitor, single point |
| 22 | `O=C1CC2OCC=C3CN4CC[C@]56c7ccccc7N1C5C2[C@H]3C[C@H]46` (some centres undefined) | CP192 | 21331 | inhibitor, partial curve, poor fit |
| 23 | `O=C1CC2OCC=C3CN4CC[C@]56c7ccccc7N1C5C2[C@H]3C[C@H]46` (some centres undefined) | CP215 | 10690 | inhibitor, partial curve |
| 24 | `O=C1CC2OCC=C3CN4CC[C@]56c7ccccc7N1C5C2[C@H]3C[C@H]46` (some centres undefined) | CP291 | 11995 | inhibitor, partial curve |
| 25 | `O=C1CC2OCC=C3CN4CC[C@]56c7ccccc7N1C5C2[C@H]3C[C@H]46` (some centres undefined) | P94_40 | 11220 | inhibitor, single point |
| 26 | `O=C1CC2OCC=C3CN4CC[C@]56c7ccccc7N1C5C2[C@H]3C[C@H]46` (some centres undefined) | CP185 | 10000 | inhibitor, single point |
| 27 | `O=C1CC2OCC=C3CN4CC[C@]56c7ccccc7N1C5C2[C@H]3C[C@H]46` (some centres undefined) | DIV30 | 11995 | inhibitor, partial curve |
| 28 | `O=C1CC2OCC=C3CN4CC[C@]56c7ccccc7N1C5C2[C@H]3C[C@H]46` (some centres undefined) | C2A | 11220 | inhibitor, single point |
| 29 | `O=C1CC2OCC=C3CN4CC[C@]56c7ccccc7N1C5C2[C@H]3C[C@H]46` (some centres undefined) | CP269 | 11995 | inhibitor, partial curve |
| 30 | `O=C1CC2OCC=C3CN4CC[C@]56c7ccccc7N1C5C2[C@H]3C[C@H]46` (some centres undefined) | CP329 | 7569 | inhibitor, partial curve |
| 31 | `O=C1CC2OCC=C3CN4CC[C@]56c7ccccc7N1C5C2[C@H]3C[C@H]46` (some centres undefined) | TAB113 | 17782 | inhibitor, single point |
| 32 | `O=C1CC2OCC=C3CN4CC[C@]56c7ccccc7N1C5C2[C@H]3C[C@H]46` (some centres undefined) | CP211 | 19011 | inhibitor, single point |
| 33 | `O=C1CC2OCC=C3CN4CC[C@]56c7ccccc7N1C5C2[C@H]3C[C@H]46` (some centres undefined) | ATS95 | 10000 | inhibitor, single point |
| 34 | `O=C1CC2OCC=C3CN4CC[C@]56c7ccccc7N1C5C2[C@H]3C[C@H]46` (some centres undefined) | TAB109 | 10000 | inhibitor, single point |
| 35 | `O=C1CC2OCC=C3CN4CC[C@]56c7ccccc7N1C5C2[C@H]3C[C@H]46` (some centres undefined) | DFO2036 | 11220 | inhibitor, partial curve, poor fit |
| 36 | `O=C1CC2OCC=C3CN4CC[C@]56c7ccccc7N1C5C2[C@H]3C[C@H]46` (some centres undefined) | CP315 | 16944 | inhibitor, single point |
| 37 | `O=C1CC2OCC=C3CN4CC[C@]56c7ccccc7N1C5C2[C@H]3C[C@H]46` (some centres undefined) | parasite line A | 17782 | inhibitor, single point |
| 38 | `O=C1CC2OCC=C3CN4CC[C@]56c7ccccc7N1C5C2[C@H]3C[C@H]46` (some centres undefined) | CP250 | 12589 | inhibitor, single point |
| 39 | `O=C1CC2OCC=C3CN4CC[C@]56c7ccccc7N1C5C2[C@H]3C[C@H]46` (some centres undefined) | CP252 | 10000 | inhibitor, single point |
| 40 | `O=C1CC2OCC=C3CN4CC[C@]56c7ccccc7N1C5C2[C@H]3C[C@H]46` (some centres undefined) | JCK | 10000 | inhibitor, single point |
| 41 | `O=C1CC2OCC=C3CN4CC[C@]56c7ccccc7N1C5C2[C@H]3C[C@H]46` (some centres undefined) | ECU | 17782 | inhibitor, single point |
| 42 | `O=C1CC2OCC=C3CN4CC[C@]56c7ccccc7N1C5C2[C@H]3C[C@H]46` (some centres undefined) | CP201 | 9528 | inhibitor, partial curve |
| 43 | `O=C1CC2OCC=C3CN4CC[C@]56c7ccccc7N1C5C2[C@H]3C[C@H]46` (some centres undefined) | CP203 | 10690 | inhibitor, partial curve |
| 44 | `O=C1CC2OCC=C3CN4CC[C@]56c7ccccc7N1C5C2[C@H]3C[C@H]46` (some centres undefined) | PAD | 12589 | inhibitor, single point |
| 45 | `O=C1CC2OCC=C3CN4CC[C@]56c7ccccc7N1C5C2[C@H]3C[C@H]46` (some centres undefined) | CP268 | 15101 | inhibitor, partial curve |
| 46 | `O=C1CC2OCC=C3CN4CC[C@]56c7ccccc7N1C5C2[C@H]3C[C@H]46` (some centres undefined) | ATS189 | 8912 | inhibitor, partial curve |
| 47 | `O=C1CC2OCC=C3CN4CC[C@]56c7ccccc7N1C5C2[C@H]3C[C@H]46` (some centres undefined) | CP194 | 15101 | inhibitor, partial curve |

6 of the entries, repeated:

compound,tested on / at,fitted potency (nM),curve
O=C1CSC2(CCN(CCCN3c4ccccc4Sc4ccc(Cl)cc43)CC2)N1,CP247,10000,"inhibitor, single point"
O=C1CSC2(CCN(CCCN3c4ccccc4Sc4ccc(Cl)cc43)CC2)N1,CP265,17782,"inhibitor, single point"
O=C1CC2OCC=C3CN4CC[C@]56c7ccccc7N1C5C2[C@H]3C[C@H]46 (some centres undefined),CP262,15101,"inhibitor, single point"
O=C1CSC2(CCN(CCCN3c4ccccc4Sc4ccc(Cl)cc43)CC2)N1,ECU,12589,"inhibitor, single point"
O=C1CSC2(CCN(CCCN3c4ccccc4Sc4ccc(Cl)cc43)CC2)N1,CP260,15848,"inhibitor, single point"
O=C1CC2OCC=C3CN4CC[C@]56c7ccccc7N1C5C2[C@H]3C[C@H]46 (some centres undefined),DIV30,11995,"inhibitor, partial curve"

The results are deposited in PubChem (AID504749; NCATS, 2011).